# Laboratory results: PubChem BioAssay AID652259 (Drosophila RNAi Screening Center, 2013)
# Screen: 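Genome-wide hunt for genes that control Wingless pathway activity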 (primary screen)
# System: Drosophila clone 8 imaginal disc epithelial cells
# Knock-down reagent: long dsRNA against Drosophila genes
# Challenge: pathway stimulated by co-transfected Wingless expression plasmid
# Read-out: 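Dual luciferase reads per well after Wingless plasmid stimulation: reporter firefly light and Renilla control light; activity is firefly divided by Renilla, a ratio not deposited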
# Reading the numbers: firefly reporter light: higher = more Wg reporter light, before normalisation; Renilla control light: higher = more transfected or surviving cells
# Active means: 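Strong candidates differ from their plate mean by at least two out of four per-plate statistical tests; weak candidates meet just one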
# Meaning of the calls: active = candidate regulator (raises or lowers reporter); inactive = not a candidate
# The deposit covers about 22,000 reagents; this is an unselected part of those that have a named target and a result. Of all reagents, 233 (1.1%) are marked active. 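Light values are raw, unnormalised plate reads; the ratio scores behind the reporter calls were not deposited.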 Reagent sequences are not shown. Not given: the amount of reagent, the time to read-out, the dose of the treatment.
gene,amplicon,"reporter change call, replicate 1","firefly reporter light, replicate 1","firefly reporter light, replicate 2","Renilla control light, replicate 1","Renilla control light, replicate 2",activity call
CG31870,DRSC21681,,7.92e5,7.60e5,3.98e5,4.20e5,inactive
CG4021,DRSC04439,,2547,9969,778,3843,inactive
CG14810,DRSC17693,,2519,,1387,,inactive
CG14810,DRSC17961,,21120,,14871,,inactive
UK114,DRSC01973,,2800,7251,1217,3584,inactive
CG1951,DRSC15403,,2096,6250,1507,899,inactive
CG14022,DRSC02352,,2839,6949,1409,2248,inactive
CG14185,DRSC10184,,11545,,4641,,inactive
js,DRSC15004,,13378,,2842,,inactive
CG31204,DRSC15106,,14668,,7187,,inactive
CG33648,DRSC01387,,19259,,10336,,inactive
nw,DRSC06451,,9125,,3732,,inactive
nw,DRSC06749,,17008,,4453,,inactive
nw,DRSC06896,,4341,,1835,,inactive
CG12446,DRSC20618,,17349,,8809,,inactive
CG6000,DRSC15938,,15696,,12849,,inactive
Nop60B,DRSC04627,,7722,,2726,,inactive
ps,DRSC15149,,11698,,3522,,inactive
ps,DRSC15151,,10260,,2620,,inactive
ps,DRSC15152,Wg reporter activity raised,20370,,2514,,active
ps,DRSC16388,,9991,,1968,,inactive
CG2256,DRSC18220,,22824,,12032,,inactive
r-l,DRSC17042,,4916,11081,2209,2872,inactive
r-l,DRSC22784,,4.95e5,5.65e5,3.40e5,3.74e5,inactive
CG10252,DRSC14221,,2387,7884,928,1840,inactive
Rrp46,DRSC15537,,19901,,3780,,inactive
CG6421,DRSC07420,,4410,,2184,,inactive
CG14086,DRSC10090,,17792,,6912,,inactive
CG42346,DRSC20622,,25376,,10311,,inactive
CG42346,DRSC20644,,15128,,8021,,inactive

2 entries already listed, ordered by “Renilla control light, replicate 1”, low to high:
gene,amplicon,"reporter change call, replicate 1","firefly reporter light, replicate 1","firefly reporter light, replicate 2","Renilla control light, replicate 1","Renilla control light, replicate 2",activity call
CG4021,DRSC04439,,2547,9969,778,3843,inactive
CG14810,DRSC17693,,2519,,1387,,inactive
